Results are given in words; binding and its absence hold for the method and conditions named. In cells and extracts the contact can be indirect. Some entries that bind do so weakly or less than the wild type.
Experiments:
Test in all cases: co-IP; liver tissue lysates of C57BL/6 J mice (normal diet, high fat & sucrose diet model, and groups treated with BER + CUR, LBC, LSDBC or DEAE-DEX@LSDBC); supernatant with antibody (anti-TXNIP or anti-p300, 1 μg/100 μL) at 4 °C overnight, protein A/G-agarose beads 4 h at 4 °C, washed 4 times with lysis buffer; western blot
[1] = target: T1, thioredoxin-interacting protein (mouse (endogenous in C57BL/6 J mouse liver)) (UniProt Q8BG60)
T1 sequence: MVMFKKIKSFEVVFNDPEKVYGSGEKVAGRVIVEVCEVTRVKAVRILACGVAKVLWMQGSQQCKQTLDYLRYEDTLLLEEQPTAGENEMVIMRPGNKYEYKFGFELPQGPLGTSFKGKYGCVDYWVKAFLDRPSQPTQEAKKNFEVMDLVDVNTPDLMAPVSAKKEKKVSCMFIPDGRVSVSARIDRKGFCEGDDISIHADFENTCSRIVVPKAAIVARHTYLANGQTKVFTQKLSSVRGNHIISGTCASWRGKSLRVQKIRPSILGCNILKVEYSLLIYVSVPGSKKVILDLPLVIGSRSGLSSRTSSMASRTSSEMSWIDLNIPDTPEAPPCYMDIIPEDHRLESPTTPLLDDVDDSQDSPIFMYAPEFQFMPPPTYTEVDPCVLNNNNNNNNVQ

The chains behind the UniProt entries cited, without tags or fusion partners.
UniProt B2RWS6: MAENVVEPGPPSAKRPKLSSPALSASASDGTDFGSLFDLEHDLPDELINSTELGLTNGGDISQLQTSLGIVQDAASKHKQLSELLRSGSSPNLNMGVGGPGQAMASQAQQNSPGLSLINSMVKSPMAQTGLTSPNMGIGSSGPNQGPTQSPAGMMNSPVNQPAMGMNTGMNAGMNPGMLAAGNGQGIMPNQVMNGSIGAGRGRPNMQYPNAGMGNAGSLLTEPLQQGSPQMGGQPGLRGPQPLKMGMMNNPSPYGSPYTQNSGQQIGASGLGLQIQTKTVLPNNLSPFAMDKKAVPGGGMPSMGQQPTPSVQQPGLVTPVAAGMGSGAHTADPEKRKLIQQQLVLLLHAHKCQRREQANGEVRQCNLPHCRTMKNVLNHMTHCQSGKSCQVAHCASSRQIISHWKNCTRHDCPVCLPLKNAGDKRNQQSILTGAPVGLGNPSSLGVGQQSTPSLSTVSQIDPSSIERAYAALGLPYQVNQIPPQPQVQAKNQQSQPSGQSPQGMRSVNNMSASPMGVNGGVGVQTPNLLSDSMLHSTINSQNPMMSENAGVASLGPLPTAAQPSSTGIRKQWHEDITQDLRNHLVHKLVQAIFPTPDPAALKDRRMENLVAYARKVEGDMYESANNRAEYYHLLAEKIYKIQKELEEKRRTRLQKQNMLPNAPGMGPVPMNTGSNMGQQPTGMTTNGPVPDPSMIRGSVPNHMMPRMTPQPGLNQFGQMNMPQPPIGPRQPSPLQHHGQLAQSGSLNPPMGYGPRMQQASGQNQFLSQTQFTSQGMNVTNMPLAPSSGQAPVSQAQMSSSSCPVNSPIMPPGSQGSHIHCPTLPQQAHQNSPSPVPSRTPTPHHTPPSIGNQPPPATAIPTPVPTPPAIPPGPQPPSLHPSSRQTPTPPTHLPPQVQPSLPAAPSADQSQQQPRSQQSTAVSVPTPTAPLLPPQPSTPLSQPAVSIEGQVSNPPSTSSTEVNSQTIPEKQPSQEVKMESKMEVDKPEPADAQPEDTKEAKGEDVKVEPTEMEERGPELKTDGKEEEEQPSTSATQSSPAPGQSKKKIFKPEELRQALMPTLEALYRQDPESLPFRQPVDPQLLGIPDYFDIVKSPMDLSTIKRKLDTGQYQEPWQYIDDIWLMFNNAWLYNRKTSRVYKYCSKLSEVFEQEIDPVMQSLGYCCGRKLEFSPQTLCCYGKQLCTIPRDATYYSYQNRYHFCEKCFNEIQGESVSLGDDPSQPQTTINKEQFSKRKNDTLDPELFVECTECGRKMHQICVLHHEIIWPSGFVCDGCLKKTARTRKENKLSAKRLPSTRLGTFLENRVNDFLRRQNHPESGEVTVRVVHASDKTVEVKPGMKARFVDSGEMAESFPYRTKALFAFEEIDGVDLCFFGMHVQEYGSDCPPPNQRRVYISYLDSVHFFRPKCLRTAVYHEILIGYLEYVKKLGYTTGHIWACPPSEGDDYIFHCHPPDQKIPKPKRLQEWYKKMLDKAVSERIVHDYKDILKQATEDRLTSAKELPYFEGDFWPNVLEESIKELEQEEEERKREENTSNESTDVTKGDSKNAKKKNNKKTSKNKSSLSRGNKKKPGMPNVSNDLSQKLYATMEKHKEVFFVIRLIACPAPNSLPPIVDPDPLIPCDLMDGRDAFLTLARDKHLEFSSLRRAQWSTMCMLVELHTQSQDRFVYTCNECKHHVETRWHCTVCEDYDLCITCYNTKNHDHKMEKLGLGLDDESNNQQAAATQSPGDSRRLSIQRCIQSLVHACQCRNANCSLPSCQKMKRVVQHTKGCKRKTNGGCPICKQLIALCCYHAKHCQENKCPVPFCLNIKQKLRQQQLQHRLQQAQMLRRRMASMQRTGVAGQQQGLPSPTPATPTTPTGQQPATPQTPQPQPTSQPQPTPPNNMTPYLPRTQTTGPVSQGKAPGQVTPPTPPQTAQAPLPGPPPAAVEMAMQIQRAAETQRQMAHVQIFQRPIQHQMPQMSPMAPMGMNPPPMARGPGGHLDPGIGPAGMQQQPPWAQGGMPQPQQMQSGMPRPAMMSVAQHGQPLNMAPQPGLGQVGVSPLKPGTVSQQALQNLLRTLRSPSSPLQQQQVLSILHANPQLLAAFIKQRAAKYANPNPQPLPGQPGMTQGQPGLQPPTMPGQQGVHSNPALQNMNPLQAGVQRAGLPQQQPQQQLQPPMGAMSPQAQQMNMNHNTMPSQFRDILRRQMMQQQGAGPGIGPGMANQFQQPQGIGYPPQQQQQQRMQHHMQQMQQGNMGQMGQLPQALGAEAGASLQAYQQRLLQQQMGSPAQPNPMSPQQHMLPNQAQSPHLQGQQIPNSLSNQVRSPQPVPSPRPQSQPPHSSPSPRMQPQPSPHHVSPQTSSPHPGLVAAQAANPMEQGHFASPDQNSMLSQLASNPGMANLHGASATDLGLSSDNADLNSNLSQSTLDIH

[2] = target: acetyltransferase p300 (mouse (endogenous in C57BL/6 J mouse liver)) (UniProt B2RWS6)
[3] = target: acetyltransferase p300 (mouse (endogenous in C57BL/6 J mouse liver)), B2RWS6; conditions: remark: other sources report otherwise

B1: thioredoxin (protein, UniProt P10639 1-105)
chain: MVKLIESKEAFQEALAAAGDKLVVVDFSATWCGPCKMIKPFFHSLCDKYSNVVFLEVDVDDCQDVAADCEVKCMPTFQFYKKGQKVGEFSGANKEKLEASITEYA
- binding [1]: binds

B2: Nuclear factor erythroid-2 related factor 2 (protein, UniProt Q60795 1-597)
chain: MMDLELPPPGLQSQQDMDLIDILWRQDIDLGVSREVFDFSQRQKDYELEKQKKLEKERQEQLQKEQEKAFFAQFQLDEETGEFLPIQPAQHIQTDTSGSASYSQVAHIPKQDALYFEDCMQLLAETFPFVDDHESLALDIPSHAESSVFTAPHQAQSLNSSLEAAMTDLSSIEQDMEQVWQELFSIPELQCLNTENKQLADTTAVPSPEATLTEMDSNYHFYSSISSLEKEVGNCGPHFLHGFEDSFSSILSTDDASQLTSLDSNPTLNTDFGDEFYSAFIAEPSDGGSMPSSAAISQSLSELLDGTIEGCDLSLCKAFNPKHAEGTMEFNDSDSGISLNTSPSRASPEHSVESSIYGDPPPGFSDSEMEELDSAPGSVKQNGPKAQPAHSPGDTVQPLSPAQGHSAPMRESQCENTTKKEVPVSPGHQKAPFTKDKHSSRLEAHLTRDELRAKALHIPFPVEKIINLPVDDFNEMMSKEQFNEAQLALIRDIRRRGKNKVAAQNCRKRKLENIVELEQDLGHLKDEREKLLREKGENDRNLHLLKRRLSTLYLEVFSMLRDEDGKPYSPSEYSLQQTRDGNVFLVPKSKKPDTKKN
- binding [2]: binds

B3: p65, a subunit of NF-κB, Q04207 1-549 (protein)
chain: MDDLFPLIFPSEPAQASGPYVEIIEQPKQRGMRFRYKCEGRSAGSIPGERSTDTTKTHPTIKINGYTGPGTVRISLVTKDPPHRPHPHELVGKDCRDGYYEADLCPDRSIHSFQNLGIQCVKKRDLEQAISQRIQTNNNPFHVPIEEQRGDYDLNAVRLCFQVTVRDPAGRPLLLTPVLSHPIFDNRAPNTAELKICRVNRNSGSCLGGDEIFLLCDKVQKEDIEVYFTGPGWEARGSFSQADVHRQVAIVFRTPPYADPSLQAPVRVSMQLRRPSDRELSEPMEFQYLPDTDDRHRIEEKRKRTYETFKSIMKKSPFNGPTEPRPPTRRIAVPTRNSTSVPKPAPQPYTFPASLSTINFDEFSPMLLPSGQISNQALALAPSSAPVLAQTMVPSSAMVPLAQPPAPAPVLTPGPPQSLSAPVPKSTQAGEGTLSEALLHLQFDADEDLGALLGNSTDPGVFTDLASVDNSEFQQLLNQGVSMSHSTAEPMLMEYPEAITRLVTGSQRPPDPAPTPLGTSGLPNGLSGDEDFSSIADMDFSALLSQISS
- binding [3]: binds

Reference: article PMC8336351
